This is one part of the list. The data scatter; read single values as rough.
These targets were tested with ClCC(=O)N[C@H]1CCCc2ccccc12 (assay: log2 mean competition ratio of IA-DTB cysteine labelling (DMSO/compound) (log2 ratio); higher = stronger cysteine engagement by compound). Settings: 50 µM; treatment time: 4 h; cell line lysate: HEK293T.
Procedure: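 IA-DTB competitive cysteine chemoproteomics in HEK293T RIPA lysate. Lysates were treated with compound 29 or 30 at 50 or 200 µM for 4 h, then IA-DTB (500 µM, 1 h), trypsin-digested, NeutrAvidin-enriched and analysed by diaPASEF. Competition ratio = intensity DMSO / intensity compound (n=4 treated, n=64 DMSO); binding: mean log2 CR ≥ 1 and p ≤ 0.05 plus QC filters. Target is the cysteine site.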

Chains of the proteins cited; added tags and fusions are not shown. Lines headed by an entry give the natural chain unless they say otherwise; changes in a name come on top. Residues count along the entry.
UniProt Q9Y450: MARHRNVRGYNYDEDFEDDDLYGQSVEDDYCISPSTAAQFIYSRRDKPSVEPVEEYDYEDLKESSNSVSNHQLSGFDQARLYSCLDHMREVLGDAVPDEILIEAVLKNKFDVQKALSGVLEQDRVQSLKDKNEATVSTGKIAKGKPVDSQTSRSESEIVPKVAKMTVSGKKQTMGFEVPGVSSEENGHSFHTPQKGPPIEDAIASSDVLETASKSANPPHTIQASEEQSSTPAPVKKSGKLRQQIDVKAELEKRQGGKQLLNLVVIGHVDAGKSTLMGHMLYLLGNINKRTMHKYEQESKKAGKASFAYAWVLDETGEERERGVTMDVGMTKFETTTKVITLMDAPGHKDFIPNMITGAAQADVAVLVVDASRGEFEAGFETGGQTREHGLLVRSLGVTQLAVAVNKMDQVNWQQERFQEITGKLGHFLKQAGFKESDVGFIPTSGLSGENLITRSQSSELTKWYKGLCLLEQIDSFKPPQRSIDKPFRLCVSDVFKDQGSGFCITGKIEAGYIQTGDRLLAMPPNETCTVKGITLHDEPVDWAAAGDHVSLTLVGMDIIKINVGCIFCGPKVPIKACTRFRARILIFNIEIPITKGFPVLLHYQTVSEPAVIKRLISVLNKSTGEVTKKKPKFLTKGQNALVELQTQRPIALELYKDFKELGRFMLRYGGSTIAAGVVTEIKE
UniProt O75330: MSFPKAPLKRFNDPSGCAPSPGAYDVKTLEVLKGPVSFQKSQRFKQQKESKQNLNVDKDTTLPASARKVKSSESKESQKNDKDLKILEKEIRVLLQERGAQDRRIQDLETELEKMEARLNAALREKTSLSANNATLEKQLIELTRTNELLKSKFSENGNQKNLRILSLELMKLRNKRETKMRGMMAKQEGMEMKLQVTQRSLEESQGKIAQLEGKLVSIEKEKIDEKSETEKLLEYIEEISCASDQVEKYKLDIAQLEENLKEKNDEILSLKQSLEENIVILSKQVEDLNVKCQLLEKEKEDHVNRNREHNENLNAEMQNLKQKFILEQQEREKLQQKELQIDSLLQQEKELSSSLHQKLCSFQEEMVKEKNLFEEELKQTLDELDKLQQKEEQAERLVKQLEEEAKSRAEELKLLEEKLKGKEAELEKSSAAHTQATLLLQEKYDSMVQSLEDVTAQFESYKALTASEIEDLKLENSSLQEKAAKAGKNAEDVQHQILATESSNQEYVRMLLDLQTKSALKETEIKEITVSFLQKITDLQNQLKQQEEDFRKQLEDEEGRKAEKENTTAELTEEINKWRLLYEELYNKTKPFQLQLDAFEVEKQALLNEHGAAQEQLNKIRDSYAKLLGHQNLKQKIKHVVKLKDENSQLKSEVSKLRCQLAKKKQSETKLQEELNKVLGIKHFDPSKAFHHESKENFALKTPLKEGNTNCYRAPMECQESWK
UniProt Q96FZ2: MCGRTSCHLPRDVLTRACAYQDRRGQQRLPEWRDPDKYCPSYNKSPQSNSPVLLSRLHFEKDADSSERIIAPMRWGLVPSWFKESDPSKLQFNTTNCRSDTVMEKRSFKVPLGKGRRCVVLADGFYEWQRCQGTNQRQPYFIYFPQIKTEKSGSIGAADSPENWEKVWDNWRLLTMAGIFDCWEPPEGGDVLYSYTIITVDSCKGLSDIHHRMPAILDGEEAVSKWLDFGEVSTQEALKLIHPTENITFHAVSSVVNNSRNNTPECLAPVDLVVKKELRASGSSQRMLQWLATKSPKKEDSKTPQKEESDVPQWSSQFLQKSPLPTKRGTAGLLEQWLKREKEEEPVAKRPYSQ
UniProt Q14527: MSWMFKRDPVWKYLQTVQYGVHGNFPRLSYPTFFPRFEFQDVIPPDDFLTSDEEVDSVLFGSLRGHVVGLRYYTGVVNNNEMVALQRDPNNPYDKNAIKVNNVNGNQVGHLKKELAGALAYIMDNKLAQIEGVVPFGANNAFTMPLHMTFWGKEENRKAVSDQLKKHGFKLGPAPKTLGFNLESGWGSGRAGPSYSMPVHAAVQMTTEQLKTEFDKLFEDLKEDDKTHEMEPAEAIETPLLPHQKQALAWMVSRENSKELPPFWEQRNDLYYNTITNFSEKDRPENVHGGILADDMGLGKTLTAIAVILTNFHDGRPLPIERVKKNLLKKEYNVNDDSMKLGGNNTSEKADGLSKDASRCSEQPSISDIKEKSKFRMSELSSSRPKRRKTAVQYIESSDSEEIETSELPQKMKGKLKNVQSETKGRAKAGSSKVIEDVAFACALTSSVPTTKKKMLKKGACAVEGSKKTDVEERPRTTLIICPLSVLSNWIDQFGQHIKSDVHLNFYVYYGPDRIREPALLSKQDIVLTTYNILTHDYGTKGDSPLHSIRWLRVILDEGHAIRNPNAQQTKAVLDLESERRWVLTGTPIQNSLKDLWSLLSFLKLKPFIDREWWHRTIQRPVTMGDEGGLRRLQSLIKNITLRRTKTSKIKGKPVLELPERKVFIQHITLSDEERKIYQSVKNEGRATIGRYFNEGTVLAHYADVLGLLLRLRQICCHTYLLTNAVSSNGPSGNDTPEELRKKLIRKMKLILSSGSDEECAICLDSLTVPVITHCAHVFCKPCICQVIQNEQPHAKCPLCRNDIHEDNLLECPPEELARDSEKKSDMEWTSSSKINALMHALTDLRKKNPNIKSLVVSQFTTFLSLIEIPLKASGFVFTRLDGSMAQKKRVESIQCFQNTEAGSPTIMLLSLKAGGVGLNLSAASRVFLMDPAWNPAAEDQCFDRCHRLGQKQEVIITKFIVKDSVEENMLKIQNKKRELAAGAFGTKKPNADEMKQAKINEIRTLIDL
UniProt P78347: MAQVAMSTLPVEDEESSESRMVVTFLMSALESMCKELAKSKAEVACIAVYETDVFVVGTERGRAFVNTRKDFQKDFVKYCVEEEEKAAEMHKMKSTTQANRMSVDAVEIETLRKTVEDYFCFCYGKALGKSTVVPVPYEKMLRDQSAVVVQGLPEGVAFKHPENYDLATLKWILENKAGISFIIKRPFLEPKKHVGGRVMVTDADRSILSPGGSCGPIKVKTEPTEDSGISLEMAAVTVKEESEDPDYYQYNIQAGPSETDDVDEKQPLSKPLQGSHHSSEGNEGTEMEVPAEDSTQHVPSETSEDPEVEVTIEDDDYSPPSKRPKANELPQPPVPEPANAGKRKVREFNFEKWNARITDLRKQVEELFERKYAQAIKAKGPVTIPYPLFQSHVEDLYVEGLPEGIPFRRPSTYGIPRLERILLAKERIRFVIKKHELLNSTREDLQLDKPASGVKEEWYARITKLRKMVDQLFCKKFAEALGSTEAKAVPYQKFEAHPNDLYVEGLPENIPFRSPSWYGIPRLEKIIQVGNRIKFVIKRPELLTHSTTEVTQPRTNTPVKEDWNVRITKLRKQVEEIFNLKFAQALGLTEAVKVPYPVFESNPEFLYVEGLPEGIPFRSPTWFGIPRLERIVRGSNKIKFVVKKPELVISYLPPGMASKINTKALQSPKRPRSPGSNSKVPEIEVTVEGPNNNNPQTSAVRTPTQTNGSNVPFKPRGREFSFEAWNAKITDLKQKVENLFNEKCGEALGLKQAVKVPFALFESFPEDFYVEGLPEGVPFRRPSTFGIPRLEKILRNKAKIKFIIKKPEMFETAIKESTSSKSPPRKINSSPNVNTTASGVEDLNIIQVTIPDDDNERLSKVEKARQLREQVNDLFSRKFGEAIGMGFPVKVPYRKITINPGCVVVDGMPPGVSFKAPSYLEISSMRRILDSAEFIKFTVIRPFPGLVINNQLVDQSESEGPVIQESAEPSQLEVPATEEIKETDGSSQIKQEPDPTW
UniProt Q9Y5Q9: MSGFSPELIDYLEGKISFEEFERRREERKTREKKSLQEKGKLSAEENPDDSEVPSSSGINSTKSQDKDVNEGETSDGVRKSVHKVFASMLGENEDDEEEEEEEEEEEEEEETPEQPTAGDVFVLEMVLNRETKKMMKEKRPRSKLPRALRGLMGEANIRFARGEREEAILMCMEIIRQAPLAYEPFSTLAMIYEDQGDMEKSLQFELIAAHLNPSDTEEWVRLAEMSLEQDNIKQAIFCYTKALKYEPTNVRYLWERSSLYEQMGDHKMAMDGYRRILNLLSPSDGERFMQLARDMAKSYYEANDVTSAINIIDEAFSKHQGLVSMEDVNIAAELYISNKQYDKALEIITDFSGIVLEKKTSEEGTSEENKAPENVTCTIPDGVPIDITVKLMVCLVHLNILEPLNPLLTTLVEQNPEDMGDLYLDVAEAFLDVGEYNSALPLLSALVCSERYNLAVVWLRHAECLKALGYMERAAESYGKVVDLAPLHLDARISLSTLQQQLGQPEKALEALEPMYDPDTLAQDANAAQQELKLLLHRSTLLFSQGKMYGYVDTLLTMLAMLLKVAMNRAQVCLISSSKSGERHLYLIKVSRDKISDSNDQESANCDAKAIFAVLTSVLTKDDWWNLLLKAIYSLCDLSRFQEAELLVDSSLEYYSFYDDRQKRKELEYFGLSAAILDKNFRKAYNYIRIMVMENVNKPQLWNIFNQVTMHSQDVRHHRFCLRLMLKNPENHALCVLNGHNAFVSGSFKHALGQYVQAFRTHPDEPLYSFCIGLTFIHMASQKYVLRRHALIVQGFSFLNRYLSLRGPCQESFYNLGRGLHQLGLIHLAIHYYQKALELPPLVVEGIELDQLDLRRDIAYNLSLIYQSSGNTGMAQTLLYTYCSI
UniProt P19367, 255-274: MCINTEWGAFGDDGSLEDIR
UniProt Q9UJC3, whole entry, looked up: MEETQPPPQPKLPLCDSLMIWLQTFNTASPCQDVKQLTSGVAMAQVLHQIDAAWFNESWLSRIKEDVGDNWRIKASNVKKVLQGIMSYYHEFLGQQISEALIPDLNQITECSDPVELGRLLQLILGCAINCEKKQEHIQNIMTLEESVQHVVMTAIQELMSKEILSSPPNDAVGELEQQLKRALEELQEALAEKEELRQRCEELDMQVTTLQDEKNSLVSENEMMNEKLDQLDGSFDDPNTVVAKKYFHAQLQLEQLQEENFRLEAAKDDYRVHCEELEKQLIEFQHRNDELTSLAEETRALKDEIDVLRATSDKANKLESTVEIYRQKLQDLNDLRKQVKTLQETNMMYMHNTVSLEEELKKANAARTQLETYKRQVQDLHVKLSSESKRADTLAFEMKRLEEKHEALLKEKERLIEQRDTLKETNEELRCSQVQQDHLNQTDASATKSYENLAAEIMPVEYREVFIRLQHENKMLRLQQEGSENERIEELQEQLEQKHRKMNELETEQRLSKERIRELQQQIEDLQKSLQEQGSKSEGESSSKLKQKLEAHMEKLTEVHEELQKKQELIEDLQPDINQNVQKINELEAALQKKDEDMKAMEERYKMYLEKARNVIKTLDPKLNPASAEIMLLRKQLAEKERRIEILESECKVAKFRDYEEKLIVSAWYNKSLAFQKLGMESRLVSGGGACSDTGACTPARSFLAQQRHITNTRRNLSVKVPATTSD
UniProt Q9Y5Q8: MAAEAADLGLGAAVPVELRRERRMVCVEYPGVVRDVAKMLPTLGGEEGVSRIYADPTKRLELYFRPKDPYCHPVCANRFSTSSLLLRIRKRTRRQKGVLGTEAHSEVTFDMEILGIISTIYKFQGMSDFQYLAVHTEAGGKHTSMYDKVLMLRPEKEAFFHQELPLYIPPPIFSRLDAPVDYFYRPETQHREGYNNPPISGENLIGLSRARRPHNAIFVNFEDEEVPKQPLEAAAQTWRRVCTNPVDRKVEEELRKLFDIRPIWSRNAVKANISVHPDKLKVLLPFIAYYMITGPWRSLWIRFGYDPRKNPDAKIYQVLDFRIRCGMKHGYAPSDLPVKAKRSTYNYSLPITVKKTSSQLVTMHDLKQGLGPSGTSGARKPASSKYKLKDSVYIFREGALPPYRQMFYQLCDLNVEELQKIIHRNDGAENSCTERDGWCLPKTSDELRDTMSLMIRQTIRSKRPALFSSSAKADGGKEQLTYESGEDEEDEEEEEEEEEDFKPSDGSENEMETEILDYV
UniProt O94927: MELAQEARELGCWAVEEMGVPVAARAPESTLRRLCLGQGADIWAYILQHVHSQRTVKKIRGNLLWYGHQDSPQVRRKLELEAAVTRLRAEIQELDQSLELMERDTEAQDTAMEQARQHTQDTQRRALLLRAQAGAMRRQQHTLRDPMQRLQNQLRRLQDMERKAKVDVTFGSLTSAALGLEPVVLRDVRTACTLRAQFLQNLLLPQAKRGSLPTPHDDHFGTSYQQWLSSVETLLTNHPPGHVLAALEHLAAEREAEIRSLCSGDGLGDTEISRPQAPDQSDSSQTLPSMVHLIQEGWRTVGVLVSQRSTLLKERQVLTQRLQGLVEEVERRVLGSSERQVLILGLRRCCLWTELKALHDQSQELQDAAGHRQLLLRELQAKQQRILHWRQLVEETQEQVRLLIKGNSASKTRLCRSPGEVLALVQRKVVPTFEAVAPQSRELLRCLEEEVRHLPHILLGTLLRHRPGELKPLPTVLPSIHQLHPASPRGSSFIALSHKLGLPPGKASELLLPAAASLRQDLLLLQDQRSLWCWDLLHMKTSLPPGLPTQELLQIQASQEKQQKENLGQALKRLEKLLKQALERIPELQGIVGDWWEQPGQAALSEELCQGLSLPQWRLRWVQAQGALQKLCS

Row | Target | log2 mean competition ratio
1 | HGS C75 (UniProt O14964) | -0.0635
2 | HBS1L C529 (UniProt Q9Y450) | -0.426
3 | HMMR C712 (UniProt O75330) | 0.122
4 | HMCES C7 (UniProt Q96FZ2) | 0.103
5 | HEATR5B C1896 (UniProt Q9P2D3) | -0.361
6 | GTF3C1 C114 (UniProt Q12789) | 0.304
7 | HLTF C442 (UniProt Q14527) | -0.676
8 | HNRNPUL2 C308 (UniProt Q1KMD3) | 0.0429
9 | GTF3C4 C376 (UniProt Q9UKN8) | -0.351
10 | GTPBP4 C336 (UniProt Q9BZE4) | -0.149
11 | HECTD4 C1299 | -0.238
12 | GTF2I C745 (UniProt P78347) | 0.0677
13 | GTF3C3 C172 (UniProt Q9Y5Q9) | -0.351
14 | HK1 C256 (UniProt P19367) | -0.27
15 | HOOK1 C652 (UniProt Q9UJC3) | -0.207
16 | GTF3C5 C242 (UniProt Q9Y5Q8) | 0.26
17 | HEXA C522 (UniProt P06865) | 0.352
18 | HIP1 C220 (UniProt O00291) | 0.345
19 | HAUS5 C446 (UniProt O94927) | 0.0868
20 | HELZ C256 (UniProt P42694) | -0.102

Same assay, conditions: 200 µM; treatment time: 4 h; cell line lysate: HEK293T

Row | Target | log2 mean competition ratio
21 | HGS C75 (UniProt O14964) | -0.29
22 | HBS1L C529 (UniProt Q9Y450) | 0.0087
23 | HMMR C712 (UniProt O75330) | 0.209
24 | HMCES C7 (UniProt Q96FZ2) | -0.402
25 | HEATR5B C1896 (UniProt Q9P2D3) | 0.0364
26 | GTF3C1 C114 (UniProt Q12789) | 0.245
27 | HLTF C442 (UniProt Q14527) | 0.215
28 | HNRNPUL2 C308 (UniProt Q1KMD3) | -0.152
29 | GTF3C4 C376 (UniProt Q9UKN8) | -0.183
30 | GTPBP4 C336 (UniProt Q9BZE4) | 0.207
31 | HECTD4 C1299 | -0.0535
32 | GTF2I C745 (UniProt P78347) | 0.0134
33 | GTF3C3 C172 (UniProt Q9Y5Q9) | -0.108
34 | HK1 C256 (UniProt P19367) | 0.43
35 | HOOK1 C652 (UniProt Q9UJC3) | 0.399
36 | GTF3C5 C242 (UniProt Q9Y5Q8) | 0.243
37 | HEXA C522 (UniProt P06865) | -0.37
38 | HIP1 C220 (UniProt O00291) | 0.869
39 | HAUS5 C446 (UniProt O94927) | 0.259
40 | HELZ C256 (UniProt P42694) | -0.227

From the supplement of paper PMC11732987, “Enantioselective OTUD7B fragment discovery through chemoproteomics screening and high-throughput optimisation” (Communications Chemistry, 2025)
